Patent US20250295790A1, “LECTIN-TARGETING CONJUGATES” (Helmholtz-Zentrum für Infektionsforschung GmbH, priority 2021, published 2025)
Some entries share one result that the patent states for a list of compounds. At least one compound was matched to its structure with a doubt left.

Test system: P. aeruginosa PA14
Assay: Antibiotic susceptibility (MIC assay, broth microdilution)
Type: cell-based, Pseudomonas aeruginosa PA14
Conditions: Matrix 1: PBS; pre-incubation time not specified
Description: Bacterial strains were streaked on LB-agar plates (1% agar) from glycerol stocks and incubated at 37° C. overnight. Colonies were picked from plate and dispersed in fresh MiGler-Hinton broth II (MHB II) to yield an OD600 of 0.08-0.13. This dispersion was diluted 1:100 in fresh MHB II, which was then used for the assay to achieve a final inoculum of 5×10^5 CFU/mL. 50 μL inoculum was mixed with 50 μL of the serial dilution in the corresponding well of the 96-well plate.
The different matrices were prepared under sterile conditions: (i) 5 mL human plasma and 1 mL sterile filtrate from an P. aeruginosa PA14 overnight culture in LB were mixed with 4 mL PBS; (ii) 1 mL sterile filtrate from an P. aeruginosa PA14 overnight culture was diluted in 9 mL PBS; (iii) PBS only and (iv) 5 mL human plasma and 1 mL LB were mixed with 4 mL PBS. 6 L of each compound dilution series was diluted in 115 L matrix (˜-1:20 dilution) in a 96-well format at time point T=−3 h or T=−10 min.
The plates prepared at T=−3 h were sealed with gas-permeable foil and incubated at 37° C. in a humid incubator. The other plates were kept at room temperature. […]
The plates were sealed with gas-permeable foil and incubated at 37° C. for 18-20 h in a humid incubator. Growth inhibition was assessed by visual inspection and given MIC values are the lowest concentration of antibiotic at which there was no visible growth.

SMILES: CC(C)C[C@H](N)C(=O)N[C@@H](C)C(=O)N[C@H]1CCN(c2cc3c(cc2F)c(=O)c(C(=O)O)cn3C2CC2)C1 [Compound 35, 7-((S)-3-((S)-2-((S)-2-amino-4-methylpentanamido)propanamido)pyrrolidin-1-vl)-1-cyclopropyl-6-fluoro-4-oxo-1,4-dihydroquinoline-3-carboxylic acid]
- MIC: > 25 µM
